Reference: patent publication US20060052440A1, “Medicinal composition for treating sudden deafness” (Nichimo Co., Ltd., priority 2002, published 2006)
Some entries share one result that the patent states for a list of compounds.

Assay: SOD-like activity (superoxide scavenging activity) by ESR spin trap method, hypoxanthine-xanthine oxidase system with DMPO
Type: biochemical
Settings: listed as daidzein
Source text: This superoxide scavenging activity will be described in further detail below. Superoxides (O2') are a type of active oxygen that are produced by neutrophils and macrophages and protect the body from impurities, but also are the cause of pulmonary emphysema, cataracts, arteriosclerosis, psoriasis, and the like. These superoxides are, therefore, a double-edged sword. The enzyme activity of superoxide dismutase (SOD) and superoxide scavenging activity (SOSA or SOD-like activity) are examples of the ability of food products to eliminate O2'. The former is an enzyme and is therefore broken down by digestive enzymes and goes virtually unabsorbed in vivo when taken orally. Consequently, the latter is promising for food products. […] ESR is a method for measuring SOD-like activity and assessing the ability of […] to scavenge O2'. […] This method is also called the spin trap method. In accordance with preparation by this spin trap method, only the water-soluble components are extracted in order to extract the component with SOD-like activity contained in a sample with 0.1 M phosphate buffer. […] Consequently, measuring superoxide […] activity with the isoflavone pre-emulsified in a small amount of oil or fat was contemplated.

O=c1c(-c2ccc(O)cc2)coc2cc(O)ccc12 [Daidzein, daidzein]
SOD-like activity after emulsification (after emulsification (Tween-80 or other emulsifier), figures in parentheses): ≤ 300 units/g
SOD-like activity (superoxide scavenging activity) (not emulsified, extracted with untreated 0.1 M phosphate buffer): ≤ 300 units/g
